From patent publication US20070265288A1, “Stable Crystal Form of Imatinib Mesylate and Process for the Preparation Thereof” (priority 2004, published 2007)

Conditions: six and twelve months after manufacture

## CS(=O)(=O)O.Cc1ccc(NC(=O)c2ccc(CN3CCN(C)CC3)cc2)cc1Nc1nccc(-c2cccnc2)n1 [imatinib mesylate]
  polymorphic and chemical identity: retained the same polymorphic and chemical identity
